Measured values from paper PMC7948394.
Results are given in words; binding and its absence hold for the method and conditions named. In cells and extracts the contact can be indirect. Some entries that bind do so weakly or less than the wild type.

Sequences of proteins named here, by UniProt entry; tags and fusion partners are left off.
UniProt Q14209: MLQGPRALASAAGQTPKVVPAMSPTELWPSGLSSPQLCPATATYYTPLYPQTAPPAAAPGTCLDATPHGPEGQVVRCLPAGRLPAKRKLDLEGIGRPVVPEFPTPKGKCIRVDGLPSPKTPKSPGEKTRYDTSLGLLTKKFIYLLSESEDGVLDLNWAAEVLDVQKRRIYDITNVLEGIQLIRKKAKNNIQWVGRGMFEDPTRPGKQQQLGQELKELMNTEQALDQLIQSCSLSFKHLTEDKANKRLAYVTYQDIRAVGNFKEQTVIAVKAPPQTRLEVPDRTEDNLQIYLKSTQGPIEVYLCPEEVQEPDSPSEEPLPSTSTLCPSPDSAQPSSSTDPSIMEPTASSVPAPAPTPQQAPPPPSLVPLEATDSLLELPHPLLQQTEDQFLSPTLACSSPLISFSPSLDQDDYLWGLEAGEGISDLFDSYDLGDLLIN

Target: T1, retinoblastoma tumor suppressor protein (RB) (human (endogenous in Jurkat)) (UniProt P06400)
T1 sequence: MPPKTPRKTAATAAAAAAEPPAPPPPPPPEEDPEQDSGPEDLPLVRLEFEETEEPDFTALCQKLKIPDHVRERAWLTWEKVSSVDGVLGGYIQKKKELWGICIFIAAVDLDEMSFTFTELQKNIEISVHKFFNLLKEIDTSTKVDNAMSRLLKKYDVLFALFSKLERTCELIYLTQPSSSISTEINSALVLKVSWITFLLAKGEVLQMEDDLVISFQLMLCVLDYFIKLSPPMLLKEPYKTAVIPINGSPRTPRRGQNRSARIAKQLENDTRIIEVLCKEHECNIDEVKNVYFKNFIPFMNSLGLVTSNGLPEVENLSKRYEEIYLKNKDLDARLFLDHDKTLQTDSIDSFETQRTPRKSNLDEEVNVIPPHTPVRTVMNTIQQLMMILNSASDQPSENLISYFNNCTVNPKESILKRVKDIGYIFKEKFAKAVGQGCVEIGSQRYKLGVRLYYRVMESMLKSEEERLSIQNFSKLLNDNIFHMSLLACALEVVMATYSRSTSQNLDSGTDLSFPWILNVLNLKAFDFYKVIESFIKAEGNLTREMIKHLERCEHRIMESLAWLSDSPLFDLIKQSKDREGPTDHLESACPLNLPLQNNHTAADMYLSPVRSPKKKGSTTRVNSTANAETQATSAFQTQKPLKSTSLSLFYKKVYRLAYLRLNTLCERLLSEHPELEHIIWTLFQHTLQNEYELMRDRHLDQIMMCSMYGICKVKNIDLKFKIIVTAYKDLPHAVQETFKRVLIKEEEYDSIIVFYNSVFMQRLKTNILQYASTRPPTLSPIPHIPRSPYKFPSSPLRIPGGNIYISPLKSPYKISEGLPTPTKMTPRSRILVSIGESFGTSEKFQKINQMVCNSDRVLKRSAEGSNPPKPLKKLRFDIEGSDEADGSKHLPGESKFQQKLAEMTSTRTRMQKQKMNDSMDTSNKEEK
Experiment: co-IP; RB immunoprecipitated from Jurkat whole cell extracts (1 to 2 mg total protein) with anti-RB antibodies and Protein G Dynabeads, 4 °C overnight; cells treated with PBS or TCR cross-linked (anti-CD3, anti-CD28, secondary antibody) for 30 min; coimmunoprecipitating E2Fs detected by immunoblotting

Which binding does the source give for E2F2 (from UniProt Q14209 1-437) here?
The binding was “binds”.
